According to article PMC8068195:
No constants are given. Whether binding was seen depends on the method and setting. For part of these data: In cells and extracts the contact can be indirect. Some entries that bind do so weakly or less than the wild type.

Sequences of proteins named here, by UniProt entry; tags and fusion partners are left off. A change or cut given only in a name is not applied to a line headed by its entry. A line that says so, or that is headed by a name, gives the form on record, which may keep a tag or linker.
Myc-TCF4 C-terminal domain (a.a 501-671) (P15884, form named): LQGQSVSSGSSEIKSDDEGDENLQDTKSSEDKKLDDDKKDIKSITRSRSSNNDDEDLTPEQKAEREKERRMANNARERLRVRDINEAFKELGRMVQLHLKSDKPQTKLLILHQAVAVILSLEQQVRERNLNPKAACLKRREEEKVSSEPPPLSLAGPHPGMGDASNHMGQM
recombinant TCF4 protein (P15884, form named): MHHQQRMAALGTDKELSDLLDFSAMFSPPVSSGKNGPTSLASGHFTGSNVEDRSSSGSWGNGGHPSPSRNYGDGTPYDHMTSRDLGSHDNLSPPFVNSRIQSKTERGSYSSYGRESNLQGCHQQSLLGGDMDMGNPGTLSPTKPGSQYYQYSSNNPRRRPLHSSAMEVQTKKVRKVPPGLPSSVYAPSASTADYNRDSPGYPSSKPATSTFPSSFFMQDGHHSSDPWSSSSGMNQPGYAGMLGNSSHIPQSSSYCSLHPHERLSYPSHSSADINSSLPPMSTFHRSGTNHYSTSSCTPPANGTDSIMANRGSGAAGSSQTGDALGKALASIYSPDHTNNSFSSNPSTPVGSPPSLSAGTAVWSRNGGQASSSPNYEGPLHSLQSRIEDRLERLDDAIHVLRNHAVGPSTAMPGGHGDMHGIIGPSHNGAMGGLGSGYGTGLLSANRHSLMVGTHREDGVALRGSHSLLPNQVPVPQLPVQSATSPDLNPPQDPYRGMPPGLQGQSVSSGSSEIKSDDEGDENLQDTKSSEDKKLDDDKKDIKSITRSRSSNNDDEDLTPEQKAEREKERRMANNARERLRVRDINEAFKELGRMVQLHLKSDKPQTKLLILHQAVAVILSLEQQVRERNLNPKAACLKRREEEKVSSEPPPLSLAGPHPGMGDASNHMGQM

B1: ID1 (inhibitor of DNA binding 1), ectopically expressed (protein, UniProt P41134 1-155)
chain: MKVASGSTATAAAGPSCALKAGKTASGAGEVVRCLSEQSVAISRCAGGAGARLPALLDEQQVNVLLYDMNGCYSRLKELVPTLPQNRKVSKVEILQHVIDYIRDLQLELNSESEVGTPGGRGLPVRAPLSTLNGEISALTAEAACVPADDRILCR
B2: recombinant ID1 protein (protein, UniProt P41134 1-155)
chain: MKVASGSTATAAAGPSCALKAGKTASGAGEVVRCLSEQSVAISRCAGGAGARLPALLDEQQVNVLLYDMNGCYSRLKELVPTLPQNRKVSKVEILQHVIDYIRDLQLELNSESEVGTPGGRGLPVRAPLSTLNGEISALTAEAACVPADDRILCR

Assays:
[1] = target: Myc-TCF4 C-terminal domain (a.a 501-671) (UniProt P15884); assay: co-IP; HEK293T transiently transfected, 24 h; lysis in 1% CHAPS, 150 mM NaCl; anti-Flag, anti-ID1, anti-TCF4 or anti-Myc with protein A/G agarose beads, 24 h at 4 °C; washed three times with 200 mM NaCl; Western blot
[2] = target: Myc-tagged TCF4 (transcription factor 4), full length (UniProt P15884); assay: as above
[3] = target: recombinant TCF4 protein (UniProt P15884); assay: co-IP; in vitro, recombinant TCF4, TWIST1 and ID1; precipitated with anti-TCF4 or anti-IgG antibodies; Western blot; both purified

Row | Binder | binding [1] | binding [2] | binding [3]
1 | B1 | binds | binds | 
2 | B2 |  |  | binds
